In patent publication US7183279B2 (University of Ottawa, priority 2006, dated 2007):
For part of these data: Some peptides are written in HELM: one residue between dots, names in brackets for other building blocks, links after the first $.

How the values were obtained:
[1] = general procedure: Boc solid-phase peptide synthesis; oxime resin; DCC, DMAP, N-hydroxybenzotriazole; conditions: whole synthesis
[2] = general procedure: Boc solid-phase peptide synthesis; oxime-resin (Novabiochem), 0.57 meq/g; DCC, DMAP, N-hydroxybenzotriazole; conditions: whole synthesis; for isolated yield: scale of the general procedure 1.5 g resin
[3] = peptide synthesis; conditions: whole synthesis

Row | Substance | isolated mass [1] | isolated yield ([1]; based on starting resin, scale of the general procedure 1.5 g resin) | isolated mass [2] | isolated yield [2] | isolated yield [3]
1 | PEPTIDE1{G.[Phe4Cl].Y.[dR]}$PEPTIDE1,PEPTIDE1,1:R1-4:R2$$$V2.0 | 50 mg | 11% | – | – | –
2 | PEPTIDE1{T.[Phe4Cl].Y.[dR]}$PEPTIDE1,PEPTIDE1,1:R1-4:R2$$$V2.0 | – | – | 40 mg | 9% | –
3 | cyclo(-Gly-(p-amino)Phe-Tyr-D-Arg-) | – | – | – | – | 9%
4 | cyclo(-Gly-(p-chloro)Phe-Tyr-(p-amino)Phe-) | – | – | 45 mg | 9% | –
5 | cyclo(-Gly-(p-chloro)Phe-Tyr-(p-guanidino)Phe-) | – | – | 15 mg | 2% | –
